This is one part of the list. Shown are side measurements of this screen, not its main read-out; they come without a call. Most of these compounds were active or inconclusive in the main read-out, so they are no random draw. Words in brackets tell the shape of the fitted curve; partial curves, single points and poor fits give uncertain potencies.
Test: qHTS Assay to Find Inhibitors of Chronic Active B-Cell Receptor Signaling
Conditions: ABC-DLBCL IkBa-CBG/CBR reporter, luminescence ratio (green luciferase fused to IkBa over red control in TMD8 lymphoma cells), 4 h
How it was run: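 Cell line TMD8 (human ABC DLBCL), stably expressing tet-inducible CBG68-IkBa fusion and CBR; IMDM/0.5% FBS; cpd up to 46 uM; dox induction, 4 h, 37C/5% CO2; dual luminescence; green/red ratio; MG132 control.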

[1] = measured here: CBR red luminescence, cell number
[2] = measured here: IkBa-CBG green luminescence

Structure (SMILES) | AC50 [1] | AC50 [2]
Clc1cccc(-n2ncc3c(NC4CCCCC4)ncnc32)c1 | 12.6 µM [falling, partial curve, poor fit] | 
COc1cccc(/C=C/C(=O)Nc2ccc3c(c2)OCCO3)c1 | 6.31 µM [falling, partial curve, poor fit] | 
O=C(O)c1cc(N2N=C(C(F)(F)F)/C(=C/C=C/c3ccco3)C2=O)ccc1Cl | 0.126 µM [rising, full curve, poor fit] | 
COc1cc(C(=O)N/N=C/c2ccc(OC(=O)c3ccccc3)c(OC)c2)ccc1O | 7.08 µM [falling, partial curve, poor fit] | 
CC(C)CCOc1ccc(C(=O)NCC(c2cccs2)N2CCOCC2)cc1 (centres undefined) | 23.1 µM [rising, partial curve, poor fit] | 
O=C(COc1ccc2c3c(c(=O)oc2c1)CCC3)NC1CCCCC1 | 0.1 µM [rising, full curve, poor fit] | 
O=C(Nc1ccccc1Oc1ccccc1)c1ccccc1F | 20.6 µM [rising, partial curve] | 
CC(C(=O)OCc1nnc(-c2ccccc2)o1)N1C(=O)C2CCCCC2C1=O (centres undefined) | 22.4 µM [falling, single point] | 
COc1ccc(CCNC(=O)CN(c2ccccc2OC)S(=O)(=O)c2ccc(C)cc2)cc1 | 22.4 µM [falling, partial curve, poor fit] | 
CN(C)c1ccc(-c2nn3c(C4CCCCC4)nnc3s2)cc1 | 6.51 µM [rising, full curve, poor fit] | 
CCC(=O)Nc1nc(C)c(C(=O)Nc2cccc(Cl)c2)s1 | 10 µM [falling, partial curve, poor fit] | 
COc1ccc(OCC(O)Cn2c(=N)n(Cc3ccccc3)c3ccccc32)cc1 (centres undefined) | 29.1 µM [falling, single point] | 
O=C(Nc1ccc(Cl)cc1)N1CC=CCC1 | 14.1 µM [falling, single point] | 
c1ccc(-n2nnnc2NC2CCCCC2)cc1 | 32.6 µM [falling, partial curve, poor fit] | 
CCOC(=O)/C=C/C(=O)OCC(=O)Nc1cccc(Cl)c1Cl | 10 µM [falling, partial curve] | 
COC(=O)C1=C(C)N=C2SC(C#N)=C(N)N2C1c1cccc(OC)c1 (centres undefined) | 0.164 µM [falling, full curve, poor fit] | 
NNC(=O)C(=O)Nc1ccc(O)cc1 | 2 µM [falling, full curve] | 
CC(C)c1ccc(CN2CCN(C(=O)CCl)CC2)cc1 | 12.6 µM [falling, partial curve, poor fit] | 
O=C(c1cc2cc(Br)ccc2oc1=O)N1CCCC1 | 2.06 µM [rising, partial curve, poor fit] | 
COc1ccc(O)c(/C=N/NC(=S)NCCc2ccccc2)c1 | 15.8 µM [falling, partial curve, poor fit] | 
CCOC(=O)c1[nH]c2ccccc2c1NC(=O)COC | 4.11 µM [falling, partial curve, poor fit] | 

Structure (SMILES) | AC50 [1] | AC50 [2]
CCOC(=O)C1=C(C)NC2=C(C(=O)C(C(=O)OCC)C(c3ccco3)C2)C1c1ccccn1 (centres undefined) | 6.51 µM [falling, single point] | 6.51 µM [rising, partial curve, poor fit]
COc1ccc(C(=O)Oc2cccc(/C=N/NC(N)=S)c2)cc1 | 23.1 µM [falling, partial curve, poor fit] | 
COc1cccc(NC(=O)Nc2cc(NC(=O)Nc3cccc(OC)c3)c(C)nc2C)c1 | 3.26 µM [rising, partial curve, poor fit] | 
CCCOC(=O)Nc1nnc(CCC)s1 | 0.0517 µM [falling, full curve, poor fit] | 
CC(NC(=O)COC(=O)c1ccco1)c1ccccc1 (centres undefined) | 0.103 µM [falling, full curve, poor fit] | 
C=CC[C@@H](CC(=O)N(CCO)Cc1ccccc1)C(=O)N[C@@H](COC(=O)[C@@H](CC=C)Cc1ccc(F)cc1)Cc1c[nH]c2ccccc12 | 18.4 µM [falling, partial curve] | 
CCc1ccc(NC(=O)c2cc(S(=O)(=O)NC3CCCC3)ccc2F)cc1 | 17.8 µM [falling, single point] | 
CC1=CC(C)(C)N2C(=O)C3(C(C#N)=C(N)Oc4cc(O)ccc43)c3c(C)c(C)cc1c32 (centres undefined) | 8.2 µM [falling, partial curve, poor fit] | 
Cc1ccc(CN2CCN(C(=O)c3ccco3)CC2)cc1 | 8.2 µM [rising, partial curve] | 
N#Cc1cnn(-c2nc3sc4c(c3c(=O)[nH]2)CCCC4)c1N | 3.66 µM [rising, full curve, poor fit] | 
CN1CCN(C(=O)c2ccccc2-c2nc(-c3ccccc3)no2)CC1 | 12.6 µM [rising, partial curve] | 
Cn1c(/C=C/c2cccc(Br)c2)nc2ccccc2c1=O | 35.5 µM [falling, single point] | 
Nc1nnnn1/N=C/c1ccc(N2CCCCC2)c([N+](=O)[O-])c1 | 11.6 µM [rising, partial curve, poor fit] | 
CCOC(=O)c1c(N)c(C#N)nn1-c1ccccc1C(=O)OC | 11.6 µM [falling, partial curve, poor fit] | 
O=C(CN1C(=O)S/C(=C\c2ccccc2F)C1=O)Nc1ccccc1O | 35.5 µM [falling, single point] | 
O=C(CN(Cc1ccccc1)C(=O)CCl)c1cccc(Br)c1 | 6.51 µM [falling, full curve, poor fit] | 
O=C(Nc1ccccc1)Nc1ccccc1C(=O)NCc1ccco1 | 13 µM [falling, partial curve, poor fit] | 
S=C(NCCc1ccccc1)NCCc1ccccc1 | 1.3 µM [rising, full curve, poor fit] | 
O=C(CCOc1ccccc1)Nc1cccc(S(=O)(=O)Nc2ccccc2Cl)c1 | 14.6 µM [falling, single point] | 
CC(=O)N1CCN(c2ccc(Nc3ncnc4c3oc3ccccc34)cc2)CC1 | 25.1 µM [falling, single point] | 
NCCC(=O)N1c2ccccc2Sc2ccc(Cl)cc21 | 22.4 µM [falling, single point] | 

Structure (SMILES) | AC50 [1] | AC50 [2]
COc1cc(C=C2C(=O)c3ccccc3C2=O)cc(OC)c1 | 35.5 µM [falling, single point] | 
Cc1ccc(CNC(=O)c2nnn(-c3cccc(C)c3)c2N)cc1 | 12.6 µM [falling, partial curve] | 
CCC[C@@H](CN[C@@H](CNC)[C@H](C)CC)NCC1CCC(C(C)(C)C)CC1 (some centres undefined) | 35.5 µM [falling, single point] | 
CC[N+](CC)(CC#Cc1ccccc1)CC#Cc1ccccc1 | 3.55 µM [falling, single point] | 
C=C1CCN(c2ccc(C(=O)NCc3ccc(C)cc3)cc2[N+](=O)[O-])CC1 |  | 17.8 µM [rising, partial curve, poor fit]
Cc1c(N/N=C(\C#N)C(=O)c2ccccc2)c(=O)n(-c2ccccc2)n1C | 14.6 µM [falling, partial curve, poor fit] | 
COc1ccc(CCNc2oc(COc3ccc(Br)cc3)nc2C#N)cc1OC | 29.1 µM [falling, single point] | 
O=C(Nc1nc2c(s1)CCCC2)c1ccc2ncsc2c1 | 10.3 µM [falling, partial curve, poor fit] | 
O=C(CN1CCN(c2ccccc2)CC1)c1c[nH]c2ccccc12 | 10 µM [falling, partial curve] | 
COCCn1cnc2c1c(=O)n(Cc1ccccc1C#N)c(=O)n2Cc1ccccc1 | 6.31 µM [falling, partial curve, poor fit] | 
Cc1oc2c(c1C(=O)N1CCOCC1)C(=O)c1ccccc1C2=O | 4.47 µM [falling, full curve, poor fit] | 
COc1ccc(NC(=O)CN2c3cccc4cccc(c34)S2(=O)=O)cc1 | 15.8 µM [falling, single point] | 
O=C(NC(Cc1c[nH]c2ccccc12)C(=O)O)/C(=C\c1ccc2c(c1)OCO2)NC(=O)c1ccccc1 (centres undefined) | 0.1 µM [rising, full curve, poor fit] | 
N#Cc1c(-c2ccccc2Cl)noc1/C=C/Nc1ccc(C(=O)O)cc1 | 0.316 µM [falling, full curve] | 
CC(C)CCN(C(=O)Cc1ccc(Cl)c(Cl)c1)c1c(N)n(Cc2ccccc2)c(=O)[nH]c1=O | 6.31 µM [rising, single point] | 
Cc1ccc(C(=O)N/N=C\C=C\c2ccccc2[N+](=O)[O-])cn1 | 15.8 µM [falling, partial curve, poor fit] | 
Cc1ccccc1C(=O)c1cccn1CC(=O)NCC1CCCO1 (centres undefined) | 8.91 µM [rising, partial curve, poor fit] | 
O=C(N/C(=C\c1ccc(F)cc1)C(=O)N1CCCCCC1)c1ccccc1 | 3.16 µM [rising, full curve, poor fit] | 
CCc1cc2c(=O)n(CC(=O)NCCc3ccc(OC)c(OC)c3)cnc2s1 | 35.5 µM [rising, single point] | 
CCn1c(COc2ccccc2)nnc1SCC(=O)Nc1cc(OC)ccc1OC | 7.08 µM [falling, partial curve] | 
COc1ccc(CN2CCCC(C(=O)Nc3cccc(-n4cccn4)c3)C2)c(F)c1 (centres undefined) | 35.5 µM [falling, single point] | 

Retrieved by structure from the entries so far (2):
Structure (SMILES) | AC50 [1] | AC50 [2]
CC(C)c1ccc(CN2CCN(C(=O)CCl)CC2)cc1 | 12.6 µM [falling, partial curve, poor fit] | 
CN(C)c1ccc(-c2nn3c(C4CCCCC4)nnc3s2)cc1 | 6.51 µM [rising, full curve, poor fit] | 

Nothing new here: an excerpt of the list.
Structure (SMILES) | AC50 [1] | AC50 [2]
O=C(Nc1nc2c(s1)CCCC2)c1ccc2ncsc2c1 | 10.3 µM [falling, partial curve, poor fit] | 
O=C(CN1CCN(c2ccccc2)CC1)c1c[nH]c2ccccc12 | 10 µM [falling, partial curve] | 
